Laboratory results as given in PubChem BioAssay AID330 (DTP/NCI, 2004).
The list does not hold the whole screen: it is rich in T/C values a quarter to a half above the control, in often repeated tests (any T/C) and in doses without a T/C. Further doses and runs are listed elsewhere. T/C gives the treated animals as a percentage of the vehicle group. Some entries give survivors of the animals treated and no T/C: the source files T/C as zero there, which appears to mark a toxic dose or a test without result, not a measured value. Some doses without a T/C left all or most animals alive at the check, yet need not have been tolerated: the source hardly ever lists a survival T/C far under the control, and the zero likely stands for such cases as well. Survivors were counted at the toxicity check, usually on the fifth day, unless a day is given; later deaths do not show. Schedule codes are those of the source, read here as Q, the interval in days (D) or hours (H), X, the number of doses. Some entries hold several experiments; their values stand side by side, smallest first. Where survival is the endpoint, this PubChem deposit counts one and a half times the control or more as active, and values a quarter to a half above the control carry no call in these data; other NCI protocols may use other cut-offs.

Tested on: P388 leukemia ip, CD2F1 mice, survival T/C
Assay: NCI In Vivo Anticancer Drug Screen. Data for tumor model P388 Leukemia (intraperitoneal) in CD2F1 (CDF1) mice
Details: T/C endpoint: median survival time, higher T/C = longer survival
[1] = dose: 12.5 mg/kg/injection, schedule: Q01DX009 (ip), vehicle: Klucel (hydroxypropylcellulose) (HPC)
[2] = dose: 25.0 mg/kg/injection, schedule: Q01DX009 (ip), vehicle: Klucel (hydroxypropylcellulose) (HPC)
[3] = dose: 50.0 mg/kg/injection, schedule: Q01DX009 (ip), vehicle: Klucel (hydroxypropylcellulose) (HPC)
[4] = dose: 100.0 mg/kg/injection, schedule: Q01DX009 (ip), vehicle: Klucel (hydroxypropylcellulose) (HPC)
[5] = dose: 200.0 mg/kg/injection, schedule: Q01DX009 (ip), vehicle: Klucel (hydroxypropylcellulose) (HPC)
[6] = dose: 50.0 mg/kg/injection, schedule: Q01DX009 (ip), vehicle: saline
[7] = dose: 200.0 mg/kg/injection, schedule: Q01DX009 (ip), vehicle: saline with Tween-80
[8] = dose: 240.0 mg/kg/injection, schedule: Q01DX005 (ip), vehicle: saline with Tween-80
[9] = dose: 200.0 mg/kg/injection, schedule: Q01DX005 (ip), vehicle: saline with Tween-80
[10] = dose: 200.0 mg/kg/injection, schedule: Q04DX003 (ip), vehicle: saline
[11] = dose: 400.0 mg/kg/injection, schedule: Q04DX003 (ip), vehicle: saline
[12] = dose: 120.0 mg/kg/injection, schedule: Q01DX005 (ip), vehicle: saline with Tween-80
[13] = dose: 50.0 mg/kg/injection, schedule: Q01DX005 (ip), vehicle: Klucel (hydroxypropylcellulose) (HPC)

C[N+](C)(C)c1cc2c(nn1)Nc1ccccc1S2
T/C (dose: 3.12 mg/kg/injection, schedule: Q01DX009 (ip), vehicle: Klucel (hydroxypropylcellulose) (HPC)): 133 % of control | T/C (dose: 6.25 mg/kg/injection, schedule: Q01DX009 (ip), vehicle: Klucel (hydroxypropylcellulose) (HPC)): 125 % of control | T/C (dose: 11.0 mg/kg/injection, schedule: Q01DX009 (ip), vehicle: Klucel (hydroxypropylcellulose) (HPC)): 129 % of control | T/C [1]: 138 % of control | T/C (dose: 17.0 mg/kg/injection, schedule: Q01DX009 (ip), vehicle: Klucel (hydroxypropylcellulose) (HPC)): 146 % of control | T/C [2]: 138 and 146 % of control | T/C (dose: 37.5 mg/kg/injection, schedule: Q01DX009 (ip), vehicle: Klucel (hydroxypropylcellulose) (HPC)): 137 % of control | survivor count [3]: 6 of 6 | survivor count [4]: 1 of 6 | survivor count [5]: 0 of 6 | survivor count (dose: 400.0 mg/kg/injection, schedule: Q01DX009 (ip), vehicle: Klucel (hydroxypropylcellulose) (HPC)): 0 of 6

CCCCCCCOc1cccc(OCCCC[N+]2(CC)CCCCC2)c1
survivor count [6]: 0 of 6 | survivor count (dose: 100.0 mg/kg/injection, schedule: Q01DX009 (ip), vehicle: saline): 0 of 6 | survivor count (dose: 200.0 mg/kg/injection, schedule: Q01DX009 (ip), vehicle: saline): 0 of 6

Cc1ccc(S(=O)(=O)NC(=O)OC23COCN2COC3)cc1
T/C [7]: 132 % of control | T/C (dose: 400.0 mg/kg/injection, schedule: Q01DX009 (ip), vehicle: saline with Tween-80): 126 % of control

CC(=O)c1c(C)n(-c2ccccc2)c2c1[nH]c1ccccc12
survivor count (dose: 30.0 mg/kg/injection, schedule: Q01DX005 (ip), vehicle: Klucel (hydroxypropylcellulose) (HPC)): 6 of 6 | survivor count (dose: 60.0 mg/kg/injection, schedule: Q01DX005 (ip), vehicle: Klucel (hydroxypropylcellulose) (HPC)): 6 of 6 | survivor count (dose: 120.0 mg/kg/injection, schedule: Q01DX005 (ip), vehicle: Klucel (hydroxypropylcellulose) (HPC)): 6 of 6

CC1NC(=O)C(C(C)C)NC(=O)C2=CN(Cc3ccccc3)C=CC2NC(=O)C(C)NC(=O)C(C(C)C)NC(=O)C2=CN(Cc3ccccc3)C=CC2NC1=O (configuration not stated)
survivor count [8]: 0 of 6

C/C(=N\NC(N)=O)c1cccc(/C(C)=N/NC(N)=O)n1
T/C (dose: 100.0 mg/kg/injection, schedule: Q01DX009 (ip), vehicle: saline with Tween-80): 132 and 143 % of control | survivor count [7]: 1 of 6 and 3 of 6

C=C1C(=O)OC2/C=C(/CO)C3(O)CC(O)C(C)(CC(OC(=O)/C(C)=C/C)C12)O3 (configuration not stated)
T/C (dose: 5.0 mg/kg/injection, schedule: Q01DX009 (ip), vehicle: saline with Tween-80): 134 % of control | T/C (dose: 20.0 mg/kg/injection, schedule: Q01DX009 (ip), vehicle: saline with Tween-80): 128 % of control | survivor count (dose: 40.0 mg/kg/injection, schedule: Q01DX009 (ip), vehicle: saline with Tween-80): 0 of 6 and 3 of 6 | survivor count (dose: 80.0 mg/kg/injection, schedule: Q01DX009 (ip), vehicle: saline with Tween-80): 0 of 6

C=CCCCCCCCCCSC(=N)N
survivor count [3]: 1 of 6 | survivor count [4]: 0 of 6 | survivor count [5]: 0 of 6

CCc1cccc(CC)c1N1C(=O)COCC1=O
survivor count [6]: 6 of 6

Cn1nc(-c2ccc(S(=O)(=O)F)cc2)s/c1=N/NC(=O)c1ccccc1
survivor count (dose: 240.0 mg/kg/injection, schedule: Q01DX005 (ip), vehicle: Klucel + Tween-80): 6 of 6

CC1(c2ccc(S(=O)(=O)c3ccccc3)cc2)OC(=O)C=CC1=O (configuration not stated)
survivor count (dose: 100.0 mg/kg/injection, schedule: Q01DX005 (ip), vehicle: saline with Tween-80): 2 of 6 | survivor count [9]: 0 of 6

CCN(CC)CCCNc1c2c(nc3c(Cl)cccc13)CCCC2
survivor count [9]: 1 of 6

COc1cc2c(cc1OC)C1CC(CC3CCCCN31)OC(=O)/C=C\c1ccc(O)c-2c1 (configuration not stated)
survivor count [10]: 5 of 6 | survivor count [11]: 3 of 6

Cc1sc2c(c1C)c(=O)[nH]c1c(C#N)c(-c3ccc(Cl)cc3)cn12
survivor count [12]: 5 of 6

O=C(CC(c1ccccc1)C(C(=O)O)c1ccc(Br)cc1)c1ccccc1 (configuration not stated)
survivor count [13]: 5 of 5 | survivor count (dose: 100.0 mg/kg/injection, schedule: Q01DX005 (ip), vehicle: Klucel (hydroxypropylcellulose) (HPC)): 5 of 5 | survivor count (dose: 200.0 mg/kg/injection, schedule: Q01DX005 (ip), vehicle: Klucel (hydroxypropylcellulose) (HPC)): 4 of 5

CCC[CH2][Sn]([CH2]CCC)[CH2]CCC.CCC[CH2][Sn]([CH2]CCC)[CH2]CCC
survivor count (dose: 12.5 mg/kg/injection, schedule: Q04DX002 (ip), vehicle: saline with Tween-80): 2 of 6 | survivor count (dose: 25.0 mg/kg/injection, schedule: Q04DX002 (ip), vehicle: saline with Tween-80): 1 of 6 and 3 of 6 | survivor count (dose: 25.0 mg/kg/injection, schedule: Q04DX003 (ip), vehicle: Klucel (hydroxypropylcellulose) (HPC)): 6 of 6 | survivor count (dose: 50.0 mg/kg/injection, schedule: Q04DX002 (ip), vehicle: saline with Tween-80): 0 of 6 | survivor count (dose: 50.0 mg/kg/injection, schedule: Q04DX003 (ip), vehicle: Klucel (hydroxypropylcellulose) (HPC)): 6 of 6 | survivor count (dose: 100.0 mg/kg/injection, schedule: Q04DX002 (ip), vehicle: Klucel (hydroxypropylcellulose) (HPC)): 1 of 6 | survivor count (dose: 100.0 mg/kg/injection, schedule: Q04DX002 (ip), vehicle: saline with Tween-80): 0 of 6 | survivor count (dose: 200.0 mg/kg/injection, schedule: Q04DX002 (ip), vehicle: Klucel (hydroxypropylcellulose) (HPC)): 0 of 6 | survivor count (dose: 200.0 mg/kg/injection, schedule: Q04DX003 (ip), vehicle: Klucel (hydroxypropylcellulose) (HPC)): 6 of 6 | survivor count (dose: 400.0 mg/kg/injection, schedule: Q04DX002 (ip), vehicle: Klucel (hydroxypropylcellulose) (HPC)): 0 of 6

CCN1CCC(C2(C(=O)OC)c3ccccc3-c3ccccc32)C1 (configuration not stated)
survivor count [10]: 0 of 6 | survivor count [11]: 0 of 6

CNC(=O)OCc1c(COC(=O)NC)c(C)n(-c2ccc(C)cc2)c1C
T/C [1]: 127 and 142 % of control | T/C [2]: 130 and 136 % of control | T/C [3]: 133 and 143 % of control

CC1CC[N+](C)([B-](F)(F)F)CC1 (configuration not stated)
survivor count (dose: 200.0 mg/kg/injection, schedule: Q01DX005 (ip), vehicle: saline): 0 of 6

N#CC1=C(Nc2ccccc2)SC(c2cccs2)NC1=O (configuration not stated)
T/C (dose: 240.0 mg/kg/injection, schedule: Q01DX005 (ip), vehicle: Klucel (hydroxypropylcellulose) (HPC)): 125 % of control

COCCOC(=O)CCn1cc(F)c(=O)[nH]c1=O
T/C (dose: 200.0 mg/kg/injection, schedule: Q04DX002 (ip), vehicle: saline): 133 % of control | T/C (dose: 400.0 mg/kg/injection, schedule: Q04DX002 (ip), vehicle: saline): 132 and 139 % of control | T/C (dose: 800.0 mg/kg/injection, schedule: Q04DX002 (ip), vehicle: saline): 141 % of control | survivor count (dose: 1600.0 mg/kg/injection, schedule: Q04DX002 (ip), vehicle: saline): 6 of 6

O=C1C2C(C(=O)N1c1ccccc1)C1(c3cccnc3)NC(=O)C2(Cc2cccnc2)c2ccccc21 (configuration not stated)
survivor count [12]: 6 of 6

CNC(=O)N1CC2CCC(C)(C1)OC2(C)C (configuration not stated)
survivor count [13]: 6 of 6

Cc1cc(O)c2c(=O)c(=O)c2c1
survivor count [9]: 1 of 6

C[N+]1(Cc2ccccc2)CCC(O)(C(=O)c2ccccc2)CC1 (configuration not stated)
survivor count [12]: 2 of 6 | survivor count [8]: 1 of 6

COC(=O)/C1=C/N(C=O)CCCC2OC12C(=O)OC (configuration not stated)
survivor count (dose: 400.0 mg/kg/injection, schedule: Q01DX001 (ip), vehicle: Klucel (hydroxypropylcellulose) (HPC)): 3 of 6
